# This is one part of the list. Shown are side measurements of this screen, not its main read-out; they come without a call. The list favours compounds with an active or inconclusive main result. The note in brackets gives the kind of curve behind each potency; many fits are weak.
# Assay: qHTS Assay for Lipid Storage Modulators in Drosophila S3 Cells;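 for cell number change: cells counted by Cell Tracker Red CMTPX staining in the red channel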
# Conditions: BODIPY lipid droplet fluorescence, 18-24 h; for cell number change: measured here: cell count max response, cells fed with added oleic acid
# Method in brief: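 Laser-scanning cytometry quantifies lipid droplet accumulation (500–530 nm total intensity; droplet/cell object ratio) in oleic acid-fed (400 uM added) Drosophila S3 cells treated with a concentration series. 20 uM Triacsin C defined 100% inhibition.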
# [1] = measured here: cell number channel AC50, cells fed with added oleic acid
# [2] = measured here: lipid fluorescence (Fed channel) AC50, cells fed with added oleic acid
Structure (SMILES),cell number change [%],AC50 [1],AC50 [2]
COCc1[nH]nc2c1C(c1c(F)cccc1Cl)C(C#N)=C(N)O2 (stereo unspecified),-31.6,"1.46 µM [falling, full curve, poor fit]",–
COC(=O)c1ccc(OCC(O)CN2CCc3cc(OC)c(OC)cc3C2c2ccccc2)cc1 (stereo unspecified),16.1,–,–
c1cc2c3c(cccc3c1)NC1(CCCCCC1)N2,8.26,–,"2.06 µM [rising, single point]"
Nc1c(C(=O)Nc2cccc(C(=O)O)c2)sc2nc3c(cc12)CCCC3,-4.05,–,"6.51 µM [rising, single point]"
COc1ccccc1C(O)(C(=O)N(NC(C)=O)c1ccccc1)c1ccccc1OC,-15.3,–,"2.91 µM [rising, single point]"
Fc1ccc(/C=N/NC(=S)Nc2cccnc2)cc1,87.9,–,–
CS(=O)(=O)Oc1ccc(/C=N/NC(=O)c2ccncc2)cc1,16.7,"0.0651 µM [falling, full curve]","0.651 µM [falling, partial curve, poor fit]"
Cc1ccccc1C(=O)O,13.3,"0.146 µM [falling, single point]",–
COc1nnc(-c2ccc(N3CCOCC3)c(NC(=O)c3ccccc3)c2)c2ccccc12,-0.133,–,–
CCN(CC(=O)Nc1c(F)cccc1F)C(=O)CNC(=O)c1ccc(Br)o1,-5.66,–,–
COc1ccc(NC(=O)Cc2nnc(SCC(=O)Nc3ccccc3)n2C)cc1,22.7,–,"20.6 µM [rising, single point]"
O=C1NCCN(Cc2ccc(Cl)c(F)c2)C1CC(=O)N1CCCO1 (stereo unspecified),20.5,–,"0.00651 µM [rising, full curve, poor fit]"
O=C(/C=C/c1ccco1)NC1CCCC1,24.2,–,"0.13 µM [falling, full curve, poor fit]"
CCc1ccccc1-n1cnc2cc(C(=O)O)ccc21,-32.3,–,–
COc1cc2c(cc1OC)C(C)N(S(=O)(=O)c1cnc(Cl)c(Cl)c1)CC2 (stereo unspecified),–,–,"6.51 µM [falling, single point]"
Cc1ccc(OC(F)F)c(NC(=O)Nc2cccc(C(F)(F)F)c2)c1,-81,"29.1 µM [falling, single point]",–
COc1ccc(CN2C(=O)C(O)(CC(=O)c3c(C)n[nH]c3C)c3ccccc32)cc1OC (stereo unspecified),10,–,"0.731 µM [rising, full curve]"
O=C(NC1CCN(Cc2ccccc2)CC1)c1ccc(CS(=O)c2ccc(F)cc2)o1 (stereo unspecified),–,–,"6.51 µM [falling, single point]"
O=C(NCc1nc2ccccc2[nH]1)C1=C[C@@H](c2csc3ccccc23)C[C@@H](OCCCCO)O1,-0.318,–,"1.3 µM [rising, full curve, poor fit]"
Cc1ccc(Cl)c(OCCN2CCCC(C)C2)c1 (stereo unspecified),12.7,–,"6.51 µM [falling, single point]"
Cc1ccc(-n2nc3ccc(NC(=O)c4ccco4)cc3n2)cc1,–,"1.46 µM [rising, partial curve]",–

# A draw from above in order of number of heavy atoms, smallest number first:
Structure (SMILES),cell number change [%],AC50 [1],AC50 [2]
Cc1ccc(Cl)c(OCCN2CCCC(C)C2)c1 (stereo unspecified),12.7,–,"6.51 µM [falling, single point]"
c1cc2c3c(cccc3c1)NC1(CCCCCC1)N2,8.26,–,"2.06 µM [rising, single point]"
COc1ccc(CN2C(=O)C(O)(CC(=O)c3c(C)n[nH]c3C)c3ccccc32)cc1OC (stereo unspecified),10,–,"0.731 µM [rising, full curve]"

# Further structures

Structure (SMILES),cell number change [%],AC50 [1],AC50 [2]
N#CC1(C#N)CC(C=O)=C(N)C1(C#N)CC(=O)C12CC3CC(CC(C3)C1)C2 (stereo unspecified),-22.1,–,"29.1 µM [falling, single point]"
COc1ccc2c(c1)c(=O)c(C(=O)c1ccc(C)cc1)cn2CC(=O)Nc1ccc(F)cc1,10.4,–,–
Cc1cccc(NC(=O)CN(CC2CCCO2)C(=O)c2oc3ccccc3c2C)c1C (stereo unspecified),-29.7,–,–
Cc1cc(C)cc(C(=O)NCCCN2CCOCC2)c1,8.76,–,"0.58 µM [falling, single point]"
Cn1ncc2c(Nc3ccc(Cl)cc3)ncnc21,-25.7,–,"1.03 µM [falling, full curve]"
NC(=O)CC(NC(=O)Cc1ccc(Br)cc1)c1ccc(NCc2cc(F)ccc2F)c([N+](=O)[O-])c1 (stereo unspecified),14.9,–,"10.3 µM [falling, partial curve]"
Cc1cc(Cl)ccc1OCC(=O)NCCCN1CCOCC1,-11.2,–,"29.1 µM [rising, single point]"
COc1cc2c(cc1OC)CN(C(=O)CNC(=O)c1ccc(OC(F)F)cc1)CC2,25.2,"0.461 µM [rising, full curve, poor fit]","13 µM [rising, partial curve, poor fit]"
O=C(CCCn1c(=S)[nH]c2ccc(Br)cc2c1=O)NCC1CCCO1 (stereo unspecified),-15.2,–,"29.1 µM [falling, single point]"
COc1ccc(N(CC(O)CN2CCOCC2)S(=O)(=O)c2ccccc2)cc1 (stereo unspecified),6.41,–,–
C=CCOc1cccc(C2C(C(=O)c3ccc(C)o3)=C(O)C(=O)N2c2nnc(C)s2)c1 (stereo unspecified),47.5,"1.64 µM [rising, partial curve]",–
COc1ccc(CNC(=O)C(OC(=O)c2ccco2)c2ccc(F)cc2)cc1 (stereo unspecified),21.7,–,"0.00461 µM [rising, full curve, poor fit]"
CCOC(=O)C1(CCOC)CCN(Cc2ccc3nonc3c2)CC1,9.47,"4.11 µM [rising, single point]","3.66 µM [rising, single point]"
CCN(CC)c1ccc2cc(S(=O)(=O)c3ccc(C)cc3)c(=O)oc2c1,52.9,"29.1 µM [rising, single point]","23.1 µM [rising, partial curve]"
O=C(NC1CCCC1)c1ccc(CS(=O)Cc2ccc(Cl)cc2)o1 (stereo unspecified),–,–,"6.51 µM [falling, single point]"
N#C/C(=C\c1ccc(O)c(O)c1)C(=O)NCCc1ccccc1,-21.9,"0.116 µM [falling, full curve, poor fit]","0.116 µM [falling, full curve, poor fit]"
CC(=O)c1cccc(NCC(=O)c2ccc(C)c([N+](=O)[O-])c2)c1,17.1,–,"6.51 µM [rising, single point]"
CC1=CC=CC2=NC(=O)CC(C)(C(=O)N(CC(=O)NC3CCCC3)c3ccc(F)cc3)N12 (stereo unspecified),-19.2,–,–
CCOC(=O)c1ccc(NC(=O)C2CCCN(c3cnccn3)C2)cc1 (stereo unspecified),2.39,"1.64 µM [rising, partial curve, poor fit]","2.59 µM [rising, partial curve]"
COc1ccc(N2CCN(CNC(=O)c3ccccc3)CC2)cc1,9.26,–,"29.1 µM [rising, single point]"
CCCNC(=O)c1ccc(COc2ccc(C(C)(C)C)cc2)o1,-27.7,–,"29.1 µM [falling, single point]"

Structure (SMILES),cell number change [%],AC50 [1],AC50 [2]
Cc1ccccc1CSCC(=O)Nc1c(C)n(C)n(-c2ccccc2)c1=O,40,"32.6 µM [rising, single point]",–
COc1ccc(NC(=O)CN2C(=O)CSc3ncccc32)cc1,13.5,–,–
O=C(O)c1ccc(Cl)c(S(=O)(=O)Nc2ccccc2C(=O)Nc2ccc(Cl)cc2)c1,17.1,–,–
CC1CCN(C(=O)CN2C(=O)c3cccc4cccc(c34)C2=O)CC1,5.7,–,–
O=C(c1ccccc1)c1ccc(C(=O)N2CCN(c3ccccc3Cl)CC2)cc1,-19,"0.103 µM [falling, full curve, poor fit]","0.206 µM [falling, full curve]"
CCOC(=O)C1=C(C)NC(SCC(N)=O)=C(C#N)C1c1ccccc1 (stereo unspecified),31.6,"0.0651 µM [rising, full curve, poor fit]",–
C[C@]12C[C@H](O)[C@@H]3c4ccc(O)cc4CCC3[C@@H]1CCC2=O (stereo partly specified),14.7,"0.184 µM [rising, full curve, poor fit]","0.13 µM [rising, full curve, poor fit]"
Cc1ccc(-n2c3c(cc(C(=O)NCC(=O)c4ccccc4)c2=O)C(=O)CCC3)cc1,-33.3,"14.6 µM [falling, single point]","8.2 µM [falling, partial curve]"
Cc1cc(C)cc(C(=O)N2CCN=C2SCc2ccc([N+](=O)[O-])cc2)c1,–,–,"14.6 µM [falling, partial curve]"
Oc1ccc(C2=Nn3c(nnc3-c3ccco3)SC2)cc1O,-74.5,"3.26 µM [falling, full curve]","3.66 µM [falling, full curve]"
CC12CCCCC1c1ccccc1C(=NCC(=O)O)N2 (stereo unspecified),-8.3,–,"23.1 µM [falling, single point]"
Cc1ccc(OCC(O)CN2CCN(c3ccccn3)CC2)c(C)c1 (stereo unspecified),18.2,–,"29.1 µM [rising, single point]"
N#CC1(c2ccccc2)CCCN1C(=O)c1ccc(Br)o1 (stereo unspecified),-19.6,–,–
O=C(Nc1ccc(Cl)cc1)Nc1cccc2nsnc12,–,–,"29.1 µM [falling, single point]"
COc1ncccc1-c1nnn(-c2ccc(Cl)c(Cl)c2)n1,11.3,–,"9.2 µM [rising, partial curve, poor fit]"
C=CCN1C(=S)CC(c2ccccc2)=Nc2ccccc21,-9.47,–,–
CCCc1nc2ccc(NC(=O)NCCC(=O)OCC)cc2c(=O)n1Cc1ccc(Cl)cc1,-24,–,"32.6 µM [falling, single point]"
CCOC(=O)N1CCN(C(=O)CN(c2ccc(C)c(C)c2)S(=O)(=O)c2ccccc2)CC1,-1.16,–,–
CCC(C)NS(=O)(=O)c1ccc(S(=O)(=O)N(CC(=O)Nc2ccccc2)CC2CCCO2)cc1 (stereo unspecified),0.54,"6.51 µM [rising, single point]","29.1 µM [rising, single point]"
CCOc1ccc(N2C=Nc3ccc(OCC)cc3C2)cc1,18.7,–,–
CCCN1CCC(=NNc2ccc(S(=O)(=O)N(CC)CC)cc2[N+](=O)[O-])CC1,86,"18.4 µM [rising, partial curve, poor fit]","25.9 µM [rising, partial curve]"

# Reference: PubChem BioAssay AID2685 (National Center for Advancing Translational Sciences (NCATS), 2010)
